For four molecules, binding results are on record in article doi:10.1101/2019.12.18.867333.

Chains of the proteins cited; added tags and fusions are not shown. Lines headed by an entry give the natural chain unless they say otherwise; changes in a name come on top.
UniProt Q9NVJ2, whole entry: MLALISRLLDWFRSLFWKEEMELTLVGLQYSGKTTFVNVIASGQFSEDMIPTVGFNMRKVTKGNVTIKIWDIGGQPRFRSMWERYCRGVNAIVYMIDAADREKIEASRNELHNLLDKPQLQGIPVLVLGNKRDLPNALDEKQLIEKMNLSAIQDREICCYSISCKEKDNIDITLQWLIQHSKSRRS
UniProt P51149, whole entry: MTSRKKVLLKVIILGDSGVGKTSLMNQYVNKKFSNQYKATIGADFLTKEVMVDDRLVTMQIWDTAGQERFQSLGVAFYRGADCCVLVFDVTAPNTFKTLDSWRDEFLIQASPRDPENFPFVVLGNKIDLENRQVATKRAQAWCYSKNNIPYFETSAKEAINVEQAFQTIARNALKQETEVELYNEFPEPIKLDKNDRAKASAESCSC

These are yes or no findings as the source states them, for the method shown. In cells and extracts the contact can be indirect. Some results given as binding are weak or reduced against the parent protein; the word gives no strength. Where a sequence is shown, tags or fusion partners need not be part of it.

What all share (assay): co-IP
Test [1] deals with GFP-Arl8b (UniProt Q9NVJ2).
For test [2], the target named is FLAG-RAB7 (UniProt P51149).
Test [3] addresses T1, HA-VPS33A (UniProt Q96AX1).
T1 sequence: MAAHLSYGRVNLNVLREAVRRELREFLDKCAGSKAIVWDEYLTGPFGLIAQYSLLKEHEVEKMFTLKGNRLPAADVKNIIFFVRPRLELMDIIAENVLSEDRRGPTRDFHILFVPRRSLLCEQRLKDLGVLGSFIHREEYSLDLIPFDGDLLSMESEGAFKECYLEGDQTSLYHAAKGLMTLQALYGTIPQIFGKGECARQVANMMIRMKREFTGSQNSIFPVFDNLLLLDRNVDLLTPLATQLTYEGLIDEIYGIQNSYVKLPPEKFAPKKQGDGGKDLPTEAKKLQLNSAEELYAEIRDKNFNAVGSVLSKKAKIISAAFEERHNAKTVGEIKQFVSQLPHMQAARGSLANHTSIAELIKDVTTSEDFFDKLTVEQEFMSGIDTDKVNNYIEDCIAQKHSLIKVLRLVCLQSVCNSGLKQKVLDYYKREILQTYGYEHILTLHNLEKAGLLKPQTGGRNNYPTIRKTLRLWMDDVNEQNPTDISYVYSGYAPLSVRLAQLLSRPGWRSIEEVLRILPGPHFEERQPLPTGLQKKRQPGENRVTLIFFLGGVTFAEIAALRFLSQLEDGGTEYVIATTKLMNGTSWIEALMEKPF

Test [4] concerns the target T2, FLAG-VPS18 (UniProt Q9P253).
T2 sequence: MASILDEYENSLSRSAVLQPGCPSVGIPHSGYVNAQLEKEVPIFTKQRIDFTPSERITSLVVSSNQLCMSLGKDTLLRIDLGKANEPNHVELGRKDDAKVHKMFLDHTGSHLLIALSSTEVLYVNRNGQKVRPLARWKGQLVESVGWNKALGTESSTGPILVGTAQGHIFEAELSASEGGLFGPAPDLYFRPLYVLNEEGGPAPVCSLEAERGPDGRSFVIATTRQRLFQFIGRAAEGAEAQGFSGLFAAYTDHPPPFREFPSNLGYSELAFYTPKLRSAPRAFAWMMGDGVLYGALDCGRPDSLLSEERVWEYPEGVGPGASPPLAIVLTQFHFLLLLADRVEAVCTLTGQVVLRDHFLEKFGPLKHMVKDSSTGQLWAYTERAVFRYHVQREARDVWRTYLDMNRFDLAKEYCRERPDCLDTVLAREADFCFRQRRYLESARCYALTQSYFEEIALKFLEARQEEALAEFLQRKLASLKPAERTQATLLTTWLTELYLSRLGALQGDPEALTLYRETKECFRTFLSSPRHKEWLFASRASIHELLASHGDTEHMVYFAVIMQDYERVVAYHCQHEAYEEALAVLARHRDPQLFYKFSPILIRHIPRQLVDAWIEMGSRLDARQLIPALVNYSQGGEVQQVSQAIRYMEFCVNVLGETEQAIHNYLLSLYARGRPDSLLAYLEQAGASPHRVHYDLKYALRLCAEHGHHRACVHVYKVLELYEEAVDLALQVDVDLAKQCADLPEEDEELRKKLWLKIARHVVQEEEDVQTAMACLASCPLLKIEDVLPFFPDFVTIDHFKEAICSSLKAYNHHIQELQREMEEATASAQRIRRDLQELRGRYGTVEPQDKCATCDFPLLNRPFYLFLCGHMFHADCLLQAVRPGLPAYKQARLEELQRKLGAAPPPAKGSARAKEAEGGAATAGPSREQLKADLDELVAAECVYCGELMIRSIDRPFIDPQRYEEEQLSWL

B1: VPS41^R662*-APEX2-V5 (domain or fragment, UniProt P49754-1 1-661)
chain: MAEAEEQETGSLEESTDESEEEESEEEPKLKYERLSNGVTEILQKDAASCMTVHDKFLALGTHYGKVYLLDVQGNITQKFDVSPVKINQISLDESGEHMGVCSEDGKVQVFGLYSGEEFHETFDCPIKIIAVHPHFVRSSCKQFVTGGKKLLLFERSWMNRWKSAVLHEGEGNIRSVKWRGHLIAWANNMGVKIFDIISKQRITNVPRDDISLRPDMYPCSLCWKDNVTLIIGWGTSVKVCSVKERHASEMRDLPSRYVEIVSQFETEFYISGLAPLCDQLVVLSYVKEISEKTEREYCARPRLDIIQPLSETCEEISSDALTVRGFQENECRDYHLEYSEGESLFYIVSPRDVVVAKERDQDDHIDWLLEKKKYEEALMAAEISQKNIKRHKILDIGLAYINHLVERGDYDIAARKCQKILGKNAALWEYEVYKFKEIGQLKAISPYLPRGDPVLKPLIYEMILHEFLESDYEGFATLIREWPGDLYNNSVIVQAVRDHLKKDSQNKTLLKTLAELYTYDKNYGNALEIYLTLRHKDVFQLIHKHNLFSSIKDKIVLLMDFDSEKAVDMLLDNEDKISIKKVVEELEDRPELQHVYLHKLFKRDHHKGQRYHEKQISLYAEYDRPNLLPFLRDSTHCPLEKALEICQQRNFVEETVYLLS
On to B1, for which the binding result in test [1] and in test [2] was “binds” throughout.

B2: GFP-VPS41^WT (protein, UniProt P49754-1 1-854)
chain: MAEAEEQETGSLEESTDESEEEESEEEPKLKYERLSNGVTEILQKDAASCMTVHDKFLALGTHYGKVYLLDVQGNITQKFDVSPVKINQISLDESGEHMGVCSEDGKVQVFGLYSGEEFHETFDCPIKIIAVHPHFVRSSCKQFVTGGKKLLLFERSWMNRWKSAVLHEGEGNIRSVKWRGHLIAWANNMGVKIFDIISKQRITNVPRDDISLRPDMYPCSLCWKDNVTLIIGWGTSVKVCSVKERHASEMRDLPSRYVEIVSQFETEFYISGLAPLCDQLVVLSYVKEISEKTEREYCARPRLDIIQPLSETCEEISSDALTVRGFQENECRDYHLEYSEGESLFYIVSPRDVVVAKERDQDDHIDWLLEKKKYEEALMAAEISQKNIKRHKILDIGLAYINHLVERGDYDIAARKCQKILGKNAALWEYEVYKFKEIGQLKAISPYLPRGDPVLKPLIYEMILHEFLESDYEGFATLIREWPGDLYNNSVIVQAVRDHLKKDSQNKTLLKTLAELYTYDKNYGNALEIYLTLRHKDVFQLIHKHNLFSSIKDKIVLLMDFDSEKAVDMLLDNEDKISIKKVVEELEDRPELQHVYLHKLFKRDHHKGQRYHEKQISLYAEYDRPNLLPFLRDSTHCPLEKALEICQQRNFVEETVYLLSRMGNSRSALKMIMEELHDVDKAIEFAKEQDDGELWEDLILYSIDKPPFITGLLNNIGTHVDPILLIHRIKEGMEIPNLRDSLVKILQDYNLQILLREGCKKILVADSLSLLKKMHRTQMKGVLVDEENICESCLSPILPSDAAKPFSVVVFHCRHMFHKECLPMPSMNSAAQFCNICSAKNRGPGSAILEMKK
With B2, the binding entry in test [3] and in test [4] was “binds” throughout.

B3: VPS41^S285P-APEX2-V5 (protein, UniProt P49754-1 1-854)
chain: MAEAEEQETGSLEESTDESEEEESEEEPKLKYERLSNGVTEILQKDAASCMTVHDKFLALGTHYGKVYLLDVQGNITQKFDVSPVKINQISLDESGEHMGVCSEDGKVQVFGLYSGEEFHETFDCPIKIIAVHPHFVRSSCKQFVTGGKKLLLFERSWMNRWKSAVLHEGEGNIRSVKWRGHLIAWANNMGVKIFDIISKQRITNVPRDDISLRPDMYPCSLCWKDNVTLIIGWGTSVKVCSVKERHASEMRDLPSRYVEIVSQFETEFYISGLAPLCDQLVVLPYVKEISEKTEREYCARPRLDIIQPLSETCEEISSDALTVRGFQENECRDYHLEYSEGESLFYIVSPRDVVVAKERDQDDHIDWLLEKKKYEEALMAAEISQKNIKRHKILDIGLAYINHLVERGDYDIAARKCQKILGKNAALWEYEVYKFKEIGQLKAISPYLPRGDPVLKPLIYEMILHEFLESDYEGFATLIREWPGDLYNNSVIVQAVRDHLKKDSQNKTLLKTLAELYTYDKNYGNALEIYLTLRHKDVFQLIHKHNLFSSIKDKIVLLMDFDSEKAVDMLLDNEDKISIKKVVEELEDRPELQHVYLHKLFKRDHHKGQRYHEKQISLYAEYDRPNLLPFLRDSTHCPLEKALEICQQRNFVEETVYLLSRMGNSRSALKMIMEELHDVDKAIEFAKEQDDGELWEDLILYSIDKPPFITGLLNNIGTHVDPILLIHRIKEGMEIPNLRDSLVKILQDYNLQILLREGCKKILVADSLSLLKKMHRTQMKGVLVDEENICESCLSPILPSDAAKPFSVVVFHCRHMFHKECLPMPSMNSAAQFCNICSAKNRGPGSAILEMKK
With B3, the binding entry in test [1] and in test [2] was “binds” throughout.

B4: VPS41^WT-APEX2-V5 (protein, UniProt P49754-1 1-854)
chain: MAEAEEQETGSLEESTDESEEEESEEEPKLKYERLSNGVTEILQKDAASCMTVHDKFLALGTHYGKVYLLDVQGNITQKFDVSPVKINQISLDESGEHMGVCSEDGKVQVFGLYSGEEFHETFDCPIKIIAVHPHFVRSSCKQFVTGGKKLLLFERSWMNRWKSAVLHEGEGNIRSVKWRGHLIAWANNMGVKIFDIISKQRITNVPRDDISLRPDMYPCSLCWKDNVTLIIGWGTSVKVCSVKERHASEMRDLPSRYVEIVSQFETEFYISGLAPLCDQLVVLSYVKEISEKTEREYCARPRLDIIQPLSETCEEISSDALTVRGFQENECRDYHLEYSEGESLFYIVSPRDVVVAKERDQDDHIDWLLEKKKYEEALMAAEISQKNIKRHKILDIGLAYINHLVERGDYDIAARKCQKILGKNAALWEYEVYKFKEIGQLKAISPYLPRGDPVLKPLIYEMILHEFLESDYEGFATLIREWPGDLYNNSVIVQAVRDHLKKDSQNKTLLKTLAELYTYDKNYGNALEIYLTLRHKDVFQLIHKHNLFSSIKDKIVLLMDFDSEKAVDMLLDNEDKISIKKVVEELEDRPELQHVYLHKLFKRDHHKGQRYHEKQISLYAEYDRPNLLPFLRDSTHCPLEKALEICQQRNFVEETVYLLSRMGNSRSALKMIMEELHDVDKAIEFAKEQDDGELWEDLILYSIDKPPFITGLLNNIGTHVDPILLIHRIKEGMEIPNLRDSLVKILQDYNLQILLREGCKKILVADSLSLLKKMHRTQMKGVLVDEENICESCLSPILPSDAAKPFSVVVFHCRHMFHKECLPMPSMNSAAQFCNICSAKNRGPGSAILEMKK
As for B4, the binding result in test [1] was “binds”.
